Results as given in PubChem BioAssay AID1347076 (National Center for Advancing Translational Sciences (NCATS), 2019).
In all, about 400,000 compounds went through this assay and about 13,000 (3.2%) were called active. Inconclusive results, whose numbers are uncertain, are shown with a selection of clear calls. The call rests on the fitted dose curve; in most records, active means well fitted cell-killing curve with a large enough effect; inconclusive means small, poorly fitted or top-dose-only effect, or effect the other way; inactive means flat fitted curve, though single readings scatter. Potencies of inconclusive entries are doubtful fits and often do not repeat.

Assay: qHTS assay for MDR1-selective chemotherapeutics: Primary screen using the drug-selected MDR subline cells KB-V1; further: nearly all actives have a fitted effect of over 60% in size
Details: KB-V1 MDR cells viability, CellTiter-Glo, 72 h; activity change, negative = cytotoxicity: at 46.1 µM (top of the series)
Method in brief: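 Potencies derive from concentration-effect curves fitted to normalized luminescence (CellTiter-Glo) of KB-V1 cells treated for 72 h at 37 degrees C in phenol-red-free DMEM containing 10% FBS.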
On the % scale 0 is the no-effect control and ±100 the full control effect; potency means the concentration at half of the fitted maximal effect.

| Structure (SMILES) | activity change, negative = cytotoxicity | Potency |
| --- | --- | --- |
| COc1cc2c(cc1OC)C(c1ccc(Br)cc1)NCC2 (stereo unspecified) | inconclusive: 8.46% | – |
| COc1cc(C2C3=C(CC(C)(C)CC3=O)N(C)C3=C2C(=O)CC(C)(C)C3)cc(Br)c1O | inactive: 8.85% | – |
| CCC1CCc2c(sc3ncnc(N4CCOCC4)c23)C1 (stereo unspecified) | – | inconclusive: 14.6 µM [cytotoxic, partial curve] |
| CCOc1ccc2nc(NCCCNS(=O)(=O)c3ccccc3)c(C#N)cc2c1 | – | inconclusive: 20.6 µM [cytotoxic, partial curve, poor fit] |
| Cc1ccc(-c2nc3c(c(=O)[nH]c(=O)n3CC(C)C)n2CC(C)C)cc1[N+](=O)[O-] | – | inconclusive: 2.06 µM [cytotoxic, full curve] |
| COc1ccc(-n2c(SCC(=O)NCCC(C)C)nc3ccsc3c2=O)cc1 | – | inconclusive: 3.26 µM [cytotoxic, full curve, poor fit] |
| CC(C)(O)[C@@H]1CC[C@@](C)(C2CC[C@]3(C)C2[C@H](O)CC2[C@@]4(C)CC[C@H](O)C(C)(C)C4[C@@H](O[C@H]4O[C@@H](CO)[C@H](O)[C@@H](O)[C@@H]4O[C@@H]4O[C@H](CO)[C@@H](O)[C@H](O)[C@H]4O)C[C@]23C)O1 (stereo in doubt) | inactive: -7.52% | – |
| O=C(N/N=C/C=C/c1ccc([N+](=O)[O-])cc1)C1COc2ccccc2O1 (stereo unspecified) | – | inconclusive: 20.6 µM [rising, single point] |
| Nc1c(C(=O)NCc2ccco2)c2nc3ccccc3nc2n1CCc1ccccc1F | – | inconclusive: 20.6 µM [cytotoxic, single point] |
| COc1ccc(-n2ccnc2CN2CCCC(CO)(Cc3cccc(OC)c3)C2)cc1 (stereo unspecified) | – | inconclusive: 29.1 µM [cytotoxic, single point] |
| COc1ccc(CNCCC(c2ccccc2)C2CCOC(C)(C)C2)cc1 (stereo unspecified) | – | inconclusive: 5.17 µM [cytotoxic, partial curve, poor fit] |
| CCOc1cc(C(=O)Nc2nnc(S(=O)(=O)N3CCOCC3)s2)cc(OCC)c1OCC | inactive: 0% | – |
| CCN(CC)c1ccc(NC(=O)c2cc(OC)cc(OC)c2)c(C)c1 | – | active: 1.16 µM |
| N/C(=C\C(=O)c1cc(Cl)ccc1O)C(Cl)(Cl)Cl | – | active: 7.31 µM |
| N#Cc1cccc(NC(=O)CNc2cccc(S(=O)(=O)N3CCCCC3)c2)c1 | – | inconclusive: 20.6 µM [cytotoxic, single point] |
| CCCCOc1ccc(C(=O)NCC(=O)OC2CCOC2=O)cc1 (stereo unspecified) | inactive: 3.38% | – |
| NC(=O)Nc1ccc(Cl)cc1 | inactive: 22% | – |
| CC(C)(C)c1ccc(OCC(=O)N(c2ccccn2)C2CCCCC2)cc1 | – | inconclusive: 20.6 µM [cytotoxic, partial curve] |
| CCOCCCn1c(SCC(=O)NCc2ccccc2)nc2c(sc3ccccc32)c1=O | inactive: 0% | – |
| CCN(CC)C(=O)c1cccc(-c2csc(C(O)(c3ccccc3)C(F)(F)F)n2)c1 (stereo unspecified) | – | inconclusive: 6.51 µM [cytotoxic, partial curve] |
| CCNC(=O)c1cc2c(c(-c3cccc(-c4cccnc4)c3)n1)[C@H](CCO)N(S(C)(=O)=O)C2 | – | inconclusive: 29.1 µM [rising, single point] |
| O=C(C1CCCCC1)N1CCN(c2ccnc3cc(Cl)ccc23)CC1 | – | inconclusive: 32.6 µM [cytotoxic, single point] |

At a glance, 20 of the compounds above.

| Structure (SMILES) | activity change, negative = cytotoxicity | Potency |
| --- | --- | --- |
| COc1cc(C2C3=C(CC(C)(C)CC3=O)N(C)C3=C2C(=O)CC(C)(C)C3)cc(Br)c1O | inactive: 8.85% | – |
| CCC1CCc2c(sc3ncnc(N4CCOCC4)c23)C1 (stereo unspecified) | – | inconclusive: 14.6 µM [cytotoxic, partial curve] |
| CCOc1ccc2nc(NCCCNS(=O)(=O)c3ccccc3)c(C#N)cc2c1 | – | inconclusive: 20.6 µM [cytotoxic, partial curve, poor fit] |
| Cc1ccc(-c2nc3c(c(=O)[nH]c(=O)n3CC(C)C)n2CC(C)C)cc1[N+](=O)[O-] | – | inconclusive: 2.06 µM [cytotoxic, full curve] |
| COc1ccc(-n2c(SCC(=O)NCCC(C)C)nc3ccsc3c2=O)cc1 | – | inconclusive: 3.26 µM [cytotoxic, full curve, poor fit] |
| CC(C)(O)[C@@H]1CC[C@@](C)(C2CC[C@]3(C)C2[C@H](O)CC2[C@@]4(C)CC[C@H](O)C(C)(C)C4[C@@H](O[C@H]4O[C@@H](CO)[C@H](O)[C@@H](O)[C@@H]4O[C@@H]4O[C@H](CO)[C@@H](O)[C@H](O)[C@H]4O)C[C@]23C)O1 (stereo in doubt) | inactive: -7.52% | – |
| O=C(N/N=C/C=C/c1ccc([N+](=O)[O-])cc1)C1COc2ccccc2O1 (stereo unspecified) | – | inconclusive: 20.6 µM [rising, single point] |
| Nc1c(C(=O)NCc2ccco2)c2nc3ccccc3nc2n1CCc1ccccc1F | – | inconclusive: 20.6 µM [cytotoxic, single point] |
| COc1ccc(-n2ccnc2CN2CCCC(CO)(Cc3cccc(OC)c3)C2)cc1 (stereo unspecified) | – | inconclusive: 29.1 µM [cytotoxic, single point] |
| COc1ccc(CNCCC(c2ccccc2)C2CCOC(C)(C)C2)cc1 (stereo unspecified) | – | inconclusive: 5.17 µM [cytotoxic, partial curve, poor fit] |
| CCOc1cc(C(=O)Nc2nnc(S(=O)(=O)N3CCOCC3)s2)cc(OCC)c1OCC | inactive: 0% | – |
| CCN(CC)c1ccc(NC(=O)c2cc(OC)cc(OC)c2)c(C)c1 | – | active: 1.16 µM |
| N/C(=C\C(=O)c1cc(Cl)ccc1O)C(Cl)(Cl)Cl | – | active: 7.31 µM |
| N#Cc1cccc(NC(=O)CNc2cccc(S(=O)(=O)N3CCCCC3)c2)c1 | – | inconclusive: 20.6 µM [cytotoxic, single point] |
| CCCCOc1ccc(C(=O)NCC(=O)OC2CCOC2=O)cc1 (stereo unspecified) | inactive: 3.38% | – |
| NC(=O)Nc1ccc(Cl)cc1 | inactive: 22% | – |
| CC(C)(C)c1ccc(OCC(=O)N(c2ccccn2)C2CCCCC2)cc1 | – | inconclusive: 20.6 µM [cytotoxic, partial curve] |
| CCOCCCn1c(SCC(=O)NCc2ccccc2)nc2c(sc3ccccc32)c1=O | inactive: 0% | – |
| CCN(CC)C(=O)c1cccc(-c2csc(C(O)(c3ccccc3)C(F)(F)F)n2)c1 (stereo unspecified) | – | inconclusive: 6.51 µM [cytotoxic, partial curve] |
| CCNC(=O)c1cc2c(c(-c3cccc(-c4cccnc4)c3)n1)[C@H](CCO)N(S(C)(=O)=O)C2 | – | inconclusive: 29.1 µM [rising, single point] |

The listing continues:

| Structure (SMILES) | activity change, negative = cytotoxicity | Potency |
| --- | --- | --- |
| O=C(Nc1nc2ccccc2s1)c1ccc(OCC2CCCO2)cc1 (stereo unspecified) | – | inconclusive: 2.31 µM [cytotoxic, full curve] |
| CCOC(=O)[C@]12CCC=C1N(Cc1ccc(Cl)cc1Cl)C(=O)[C@H](CC(=O)NCc1cccc3ccccc13)C2 | – | inconclusive: 13 µM [cytotoxic, partial curve] |
| CCc1ccccc1NC(=O)C(CC)Sc1nc2cc3c(cc2c(=O)n1Cc1ccco1)OCO3 (stereo unspecified) | – | active: 3.66 µM |
| CCOC(=O)c1c(O)c2ccccc2oc1=O | – | inconclusive: 8.2 µM [rising, partial curve, poor fit] |
| COc1ccc(CNC(=O)C(C)N2CCN(S(=O)(=O)c3ccccc3F)CC2)cc1 (stereo unspecified) | – | active: 23.1 µM |
| CC#CC[N+](C)(C)CC(=O)c1ccccc1 | inactive: 7.9% | – |
| CCCSc1ncc(Cl)c(C(=O)Nc2ccc(S(=O)(=O)N3CC(C)OC(C)C3)cc2)n1 (stereo unspecified) | – | inconclusive: 9.2 µM [cytotoxic, partial curve] |
| CSc1ccccc1NC(=O)COC(=O)c1ccccc1Cc1ccccc1 | – | inconclusive: 18.4 µM [cytotoxic, single point] |
| C=C[C@H]1C(C(=O)OCC)=CC[C@@H](c2ccccc2)N1S(=O)(=O)c1ccc(C)cc1 | – | inconclusive: 20.6 µM [cytotoxic, single point] |
| Cc1cccc(NC(=O)c2ccc3[nH]c(C)cc(=O)c3c2)c1 | inactive: 10.4% | – |
| COc1ccc(-n2c(CN3CCN(c4ccccc4)CC3)nc3ccc([N+](=O)[O-])cc3c2=O)c(OC)c1 | inactive: -2.54% | – |
| O=C(CSc1ccc(-c2cccnc2)nn1)Nc1ccccc1 | – | inconclusive: 18.4 µM [cytotoxic, single point] |
| CSc1ccccc1NC(=O)CSCc1ccccc1Br | – | inconclusive: 29.1 µM [cytotoxic, single point] |
| Nc1c(Cl)ncnc1N1CCOCC1 | inactive: 10.9% | – |
| CC(=O)Oc1ccc(Cn2c(C)c(C(=O)NCc3cccc(C(F)(F)F)c3)sc2=O)cc1 | – | active: 14.6 µM |
| CNC(=S)N/N=C/c1cn(Cc2ccc(F)cc2)c2ccccc12 | – | active: 14.6 µM |
| CCOc1ccc(S(=O)(=O)Nc2cccc(C(=O)NCCCN3CCCC3=O)c2)cc1 | – | inconclusive: 7.31 µM [rising, partial curve, poor fit] |
| COc1cc(-c2[nH]ncc2CN(C)Cc2nonc2C)cc(OC)c1OC | – | inconclusive: 18.4 µM [cytotoxic, single point] |
| COC(=O)C(C)n1cnc2c(cnn2-c2ccc(Cl)cc2)c1=O (stereo unspecified) | – | inconclusive: 11.6 µM [cytotoxic, partial curve, poor fit] |
| CC1CN(S(=O)(=O)c2ccc(C(=O)NC3CCCCC3)cc2)CC(C)O1 (stereo unspecified) | inconclusive: -31.7% [cytotoxic] | – |
| CC(NC(=O)COC(=O)c1c[nH]c2ccccc12)c1ccccc1 (stereo unspecified) | – | inconclusive: 29.1 µM [cytotoxic, single point] |
| CCn1c(CNC(=O)COc2ccc(C(C)C)cc2)nnc1SCC(=O)Nc1ccccc1C(C)C | – | inconclusive: 29.1 µM [cytotoxic, single point] |

| Structure (SMILES) | activity change, negative = cytotoxicity | Potency |
| --- | --- | --- |
| Cc1cc(C(=O)N2CCCC(N3CCN(c4cccc(Cl)c4)CC3)C2)nn1C (stereo unspecified) | – | inconclusive: 2.91 µM [cytotoxic, full curve] |
| Cc1cccc(C(=O)N2CCN(c3ccccn3)CC2)c1 | – | inconclusive: 32.6 µM [cytotoxic, partial curve, poor fit] |
| COc1ccc(Cl)cc1NC(=O)CN(C)CC(=O)Nc1ccccc1C(F)(F)F | – | inconclusive: 4.61 µM [cytotoxic, full curve] |
| CCCCn1nnnc1C(c1ccccc1)N1CCN(c2ccc(F)cc2)CC1 (stereo unspecified) | – | inconclusive: 11.6 µM [cytotoxic, partial curve] |
| CC(C)CNC(=O)CN1C(=O)NC2(CCc3ccccc32)C1=O (stereo unspecified) | inactive: 3.02% | – |
| Clc1ccccc1COc1ccc(/C=N/n2cnnc2)cc1 | – | inconclusive: 18.4 µM [cytotoxic, single point] |
| COC(Cn1c2c(c3cc(C)ccc31)CCCC2NCc1ccccc1)OC (stereo unspecified) | – | inconclusive: 7.31 µM [cytotoxic, partial curve] |
| CCOC(=O)CSc1nc2c(sc(=S)n2-c2ccccc2OC)c(=O)n1Cc1ccco1 | – | active: 9.2 µM |
| Cc1ccc(S(=O)(=O)Nc2cc(-c3nn(C)c(=O)c4ccccc34)ccc2N2CCOCC2)cc1 | inactive: -1.03% | – |
| O=c1cc(CSc2nnc(Nc3ccccc3F)s2)nc2sccn12 | – | active: 16.4 µM |
| Nc1ccc(SC(F)(F)F)cc1C(=O)c1ccccc1 | inactive: -13.8% | – |
| CCOc1ccc(N(CC(=O)Nc2c(C)n(C)n(-c3ccccc3)c2=O)S(=O)(=O)c2ccc(F)cc2)cc1 | inactive: 25.8% | – |
| COc1ccc(C(=O)N[C@H](C(=O)NCCCn2nc(C)cc2C)C(C)C)cc1 | – | active: 14.6 µM |
| CC1Sc2ccc(S(=O)(=O)CCC(=O)N3CCN(c4ccccc4F)CC3)cc2NC1=O (stereo unspecified) | – | inconclusive: 32.6 µM [cytotoxic, single point] |
| CCN1CCN(c2nc3c(S(=O)(=O)c4ccc(C)cc4)nnn3c3ccsc23)CC1 | inactive: 1.37% | – |
| C=CCNC(=O)/C(C#N)=C/c1cn(-c2ccccc2)nc1-c1ccc(OC)c([N+](=O)[O-])c1 | inactive: -5.11% | – |
| O=c1[nH]c2cc([N+](=O)[O-])ccc2c2ccc([N+](=O)[O-])cc12 | inactive: -6.23% | – |
| Cc1c(C(=O)NC(=S)Nc2ccccc2N2CCCC2)cccc1[N+](=O)[O-] | – | active: 13 µM |
| CN(CC(O)Cn1cnc2c1c(=O)n(C)c(=O)n2C)c1ccccc1 (stereo unspecified) | – | inconclusive: 20.6 µM [cytotoxic, single point] |
| C/C=C(\C)C(=O)OC1[C@H](OC(C)=O)C2(CO)C(CC1(C)C)C1=CCC3C4(C)CCC(O[C@@H]5O[C@H](C(=O)O)[C@@H](O[C@@H]6O[C@H](CO)[C@@H](O)[C@H](O)[C@H]6O)[C@H](O)[C@H]5O[C@H]5O[C@H](CO)[C@@H](O)[C@H](O)[C@H]5O)[C@](C)(CO)C4CCC3(C)[C@]1(C)C[C@H]2O (stereo partly specified) | – | inconclusive: 32.6 µM [cytotoxic, single point] |
| COC(=O)c1cnc(Oc2ccc(NC(=O)NC(=O)c3c(OC)cccc3OC)cc2)cc1C(F)(F)F | – | active: 2.31 µM |
| COc1ccc(CCN2C(=O)CSC2c2ccc(OC)c(OC)c2)cc1OC (stereo unspecified) | inactive: -49.8% | – |
